These results are taken from PubChem BioAssay AID330 (DTP/NCI, 2004).

The structures appear in SMILES notation. The list shows only some results of the screen, not a fair sample: it gathers tests that were run many times, whatever their T/C, doses with no T/C, and many T/C values between a quarter and a half above the control. Other doses and runs of a compound stand elsewhere. T/C is the treated group as % of the vehicle group. Some doses have a count of surviving animals in place of a T/C: the source files T/C as zero there, which appears to mark a toxic dose or a test without result, not a measured value. Some survivor counts are full or nearly so, which does not show that the dose was tolerated: the source hardly ever lists a survival T/C far under the control, and the zero likely stands for such cases as well. Counts of survivors are from the toxicity check (mostly the fifth day) where no day follows; animals may have died later. Schedules are NCI's codes, read here as Q, the interval in days (D) or hours (H), X, the number of doses. Some molecules as drawn cover several salts, stereoisomers or complexes of the source; a dose is that of the sample tested. Some entries hold several experiments; their values stand side by side, smallest first. Where survival is the endpoint, the PubChem record calls one and a half times the control and up active, and a quarter to a half above the control has no call in these data; cut-offs in other NCI protocols can differ. Additions like (4×) count equal records among those shown. Some T/C values carry the count of animals alive at the toxicity check (mostly the fifth day); where none is given, no animal had died by that day.

This experiment deals with P388 leukemia ip, CD2F1 mice, survival T/C. The experiment in a line: NCI In Vivo Anticancer Drug Screen. Data for tumor model P388 Leukemia (intraperitoneal) in CD2F1 (CDF1) mice. Particulars: T/C endpoint: median survival time, higher T/C = longer survival.
The mark [1] stands for this setting: dose: 120.0 mg/kg/injection, schedule: Q01DX005 (ip), vehicle: saline with Tween-80.
[2] abbreviates: dose: 240.0 mg/kg/injection, schedule: Q01DX005 (ip), vehicle: saline with Tween-80.
Where [3] appears, read: dose: 6.25 mg/kg/injection, schedule: Q01DX009 (ip), vehicle: saline with Tween-80.
Where [4] appears, read: dose: 25.0 mg/kg/injection, schedule: Q01DX009 (ip), vehicle: saline with Tween-80.
[5] abbreviates: dose: 50.0 mg/kg/injection, schedule: Q01DX009 (ip), vehicle: saline with Tween-80.
Where [6] appears, read: dose: 100.0 mg/kg/injection, schedule: Q01DX009 (ip), vehicle: saline with Tween-80.
The mark [7] stands for this setting: dose: 200.0 mg/kg/injection, schedule: Q01DX009 (ip), vehicle: saline with Tween-80.
Where [8] appears, read: dose: 400.0 mg/kg/injection, schedule: Q01DX009 (ip), vehicle: saline with Tween-80.
Setting [9] is: dose: 400.0 mg/kg/injection, schedule: Q04DX002 (ip), vehicle: Klucel (hydroxypropylcellulose) (HPC).
Setting [10] is: dose: 25.0 mg/kg/injection, schedule: Q01DX005 (ip), vehicle: saline with Tween-80.
Where [11] appears, read: dose: 50.0 mg/kg/injection, schedule: Q01DX005 (ip), vehicle: saline with Tween-80.
[12] abbreviates: dose: 100.0 mg/kg/injection, schedule: Q01DX005 (ip), vehicle: saline with Tween-80.
Where [13] appears, read: dose: 200.0 mg/kg/injection, schedule: Q01DX005 (ip), vehicle: saline with Tween-80.
[14] abbreviates: dose: 200.0 mg/kg/injection, schedule: Q01DX005 (ip), vehicle: Klucel (hydroxypropylcellulose) (HPC).

Regarding `COc1ccc(C2c3cc4c(cc3OC(C)(OC)C2C)OCO4)c(OC)c1OC` (configuration not stated), the survivor count (dose: 400.0 mg/kg/injection, schedule: Q01DX001 (ip), vehicle: saline with Tween-80) was 6 of 6.

Regarding `C[Se]C([Se]C)=C([Se]C)[Se]C`, the survivor count under setting [1] is recorded as 4 of 6 and the survivor count under setting [2] is 0 of 6.

`Cc1ccc(NCCNCCO)c2c(=O)c3cc(O)ccc3sc12`: the T/C is 127 % of control (dose: 3.12 mg/kg/injection, schedule: Q01DX009 (ip), vehicle: saline with Tween-80) and 132 % of control under setting [3]. The survivor count is on record as 4 of 6 under setting [4], 5 of 6 under setting [5], 0 of 6 under setting [6] and 0 of 6 under setting [7].

For the compound `C#CCn1cnc2c(=S)nc[nH]c21`, the survivor count (dose: 266.0 mg/kg/injection, schedule: Q01DX009 (ip), vehicle: saline with Tween-80) is 6 of 6 and the survivor count under setting [8] is on record as 6 of 6.

`O=c1cc[nH]c(=O)o1`: the survivor count (dose: 100.0 mg/kg/injection, schedule: Q01DX009 (ip), vehicle: water) is 0 of 6.

With `CCOC(=O)/C(N)=N/N=Nc1ccc([N+](=O)[O-])cc1`, for the setting “dose: 200.0 mg/kg/injection, schedule: Q01DX009 (ip), vehicle: saline”, the survivor count was 6 of 6.

On to `CCCCCCCCCCCCCCCCCC[N+](C)(C)C` (tested in a mixture with another compound), for which the survivor count is, setting by setting: (dose: 6.0 mg/kg/injection, schedule: Q01DX009 (ip), vehicle: saline with Tween-80) 6 of 6; (dose: 25.0 mg/kg/injection, schedule: Q01DX009 (ip), vehicle: saline) 6 of 6.

Turning to `O=C(O)c1ccnc2c1ccc1ccccc12`, the survivor count under setting [9] is recorded as 0 of 5.

Take `CN(C)c1ccc(Cc2ccc(N(C)C)c(C(O)(c3ccccc3)c3ccccc3)c2)cc1C(O)(c1ccccc1)c1ccccc1`: the survivor count was 6 of 6 under setting [5], 6 of 6 under setting [6] and 6 of 6 under setting [7].

For `Cc1ccc(N2C(c3ccccc3)=CC(=C3C=CC(=O)C=C3)C=C2c2ccccc2)cc1`, the survivor count by setting is: (dose: 60.0 mg/kg/injection, schedule: Q01DX005 (ip), vehicle: saline with Tween-80) 2 of 6; under setting [1], 0 of 6; under setting [2], 0 of 6.

With `CC(C)NC(=O)OCc1c(COC(=O)NC(C)C)c(-c2ccc(Cl)c(Cl)c2)n2c1CS(=O)(=O)C2`, the survivor count was 6 of 6 under setting [10], 6 of 6 under setting [11] and 6 of 6 under setting [12].

As to `C[n+]1c(-c2cc(C(F)(F)F)cc(C(F)(F)F)c2)c2cc(N)ccc2c2ccc(N)cc21`, the T/C was 142 % of control (dose: 3.13 mg/kg/injection, schedule: Q01DX009 (ip), vehicle: saline with Tween-80); 132 % of control under setting [3]; 145 % of control (dose: 40.0 mg/kg/injection, schedule: Q01DX009 (ip), vehicle: water). Besides, the survivor count under setting [6] is 6 of 6.

Regarding `Cc1cc(O)c(C=O)c2c1C(=O)Oc1c(CO)c(O)c3c(c1O2)C(O)OC3=O` (configuration not stated), the T/C was 129 % of control (2×) under setting [4] and 131 % of control under setting [5]. Moreover, the survivor count is, setting by setting: under setting [6], 0 of 6 and 1 of 6; under setting [7], 0 of 6.

`NC(CC(=O)NO)C(=O)O` (configuration not stated): the T/C (dose: 800.0 mg/kg/injection, schedule: Q01DX009 (ip), vehicle: saline) is 145 % of control.

`O=S(=O)(O)O.[NH-]C(c1ccccc1)C([NH-])c1ccccc1.[Pt+2]` (configuration not stated): the T/C is 146 % of control (dose: 1.56 mg/kg/injection, schedule: Q04DX002 (ip), vehicle: saline); 125 and 137 % of control (dose: 6.25 mg/kg/injection, schedule: Q04DX002 (ip), vehicle: saline); 139 % of control (dose: 12.5 mg/kg/injection, schedule: Q04DX002 (ip), vehicle: saline).

As to `CCCCCCC(=O)/C=C/c1ccc(OCc2ccccc2)c(OCc2ccccc2)c1`, the survivor count under setting [10] is on record as 6 of 6, the survivor count under setting [11] is recorded as 6 of 6, the survivor count under setting [12] is recorded as 6 of 6 and the survivor count under setting [13] was 6 of 6.

Regarding `O=C(N/N=C\c1c(O)ccc2ccccc12)c1ccncc1`, the survivor count under setting [13] is 6 of 6.

In the case of `CCCCCNCC(=O)O`, the survivor count (dose: 200.0 mg/kg/injection, schedule: Q01DX005 (ip), vehicle: saline) is 6 of 6.

With `CNC(=S)N/N=C/Cn1ccc(=O)[nH]c1=O`, the survivor count under setting [14] is on record as 3 of 6.

`CN(C)c1ccc2nc3c(C(=O)O)cc(=O)c(O)c-3oc2c1`: under setting [14], the survivor count is 2 of 6.

For the compound `CC1=C(C#N)C(=O)N(C)C(=O)C1(Cl)Cl`, the survivor count under setting [9] is 1 of 6.

Consider `CC(/C=N/NC(=O)C[n+]1ccccc1)=N/NC(=O)C[n+]1ccccc1`, for which the T/C reads like this: (dose: 12.5 mg/kg/injection, schedule: Q01DX005 (ip), vehicle: saline with Tween-80) 128 % of control; under setting [10], 125 % of control; under setting [11], 125 % of control [5 of 6 alive]. In addition, the survivor count is given as 0 of 6 under setting [12] and 0 of 6 under setting [13].

Take `CN(C)CCNc1ccc([N+](=O)[O-])c2sc3ccccc3c(=O)c12`: the T/C runs as follows: under setting [4], 135 % of control; under setting [5], 136 and 143 % of control. The survivor count under setting [7] is listed as 6 of 6.

On to `O=[N+]([O-])c1cc(Cl)c(Cl)cc1NS(=O)(=O)c1ccccc1`, for which the survivor count (dose: 600.0 mg/kg/injection, schedule: Q01DX009 (ip), vehicle: saline with Tween-80) was 4 of 6.

As for `Oc1ccc(N=Cc2ccccn2)cc1`, the T/C under setting [7] is 125 % of control.

With `CCCC(Nc1nncs1)Nc1nncs1`, under setting [13], the T/C is 131 % of control.

Regarding `Cc1nn(C)c(Cl)c1C(=O)Nc1ccccc1`, under setting [1], the survivor count was 0 of 6.

On to `CCOP(=O)(N1CC1(C)C)N1CC1(C)C` (configuration not stated), for which the T/C reads like this: (dose: 10.0 mg/kg/injection, schedule: Q01DX009 (ip), vehicle: saline) 135 % of control; (dose: 80.0 mg/kg/injection, schedule: Q01DX009 (ip), vehicle: saline) 145 % of control. Also, under “dose: 120.0 mg/kg/injection, schedule: Q01DX009 (ip), vehicle: saline”, the survivor count is on record as 6 of 6.

Turning to `Nc1nc(N)c2nc(CNc3ccc(C(=O)NC(CC(=O)O)C(=O)O)cc3)cnc2n1` (configuration not stated), the T/C is, setting by setting: under setting [4], 145 % of control; (dose: 50.0 mg/kg/injection, schedule: Q04DX003 (ip), vehicle: saline with Tween-80) 145 % of control [5 of 6 alive]; (dose: 150.0 mg/kg/injection, schedule: Q04DX003 (ip), vehicle: saline with Tween-80) 133 % of control [5 of 6 alive].

On to `N=C(N)n1c(N)nc2ccccc2c1=O`, for which the survivor count runs as follows: (dose: 50.0 mg/kg/injection, schedule: Q01DX005 (ip), vehicle: Klucel (hydroxypropylcellulose) (HPC)) 1 of 5; (dose: 100.0 mg/kg/injection, schedule: Q01DX005 (ip), vehicle: Klucel (hydroxypropylcellulose) (HPC)) 0 of 5; under setting [12], 1 of 5; under setting [14], 0 of 5.

In the case of `CCOC(=O)c1sc(N)c(C(=O)OCC)c1C`, the survivor count was 6 of 6 under setting [7] and 6 of 6 under setting [8].

`CCc1nc(N)nc(N)c1-c1ccc(N2CCCCC2)c([N+](=O)[O-])c1`: under “dose: 200.0 mg/kg/injection, schedule: Q01DX009 (ip), vehicle: distilled water + Tween-80”, the T/C was 125 % of control. In addition, under “dose: 400.0 mg/kg/injection, schedule: Q01DX009 (ip), vehicle: distilled water + Tween-80”, the survivor count was 6 of 6.

Consider `O=c1cc(O)c1=O`, for which the survivor count (dose: 12.5 mg/kg/injection, schedule: Q01DX009 (ip), vehicle: saline with Tween-80) is reported as 5 of 6; the survivor count under setting [4] is 0 of 6; the survivor count under setting [5] is given as 0 of 6; the survivor count under setting [6] is given as 0 of 6.

As to `O=c1nc(Oc2ccccc2)nc2ncccn12`, the T/C under setting [4] was 137 % of control.
